Test results taken from paper PMC9182007, “Statistical Methods in the Study of Protein Binding and Its Relationship to Drug Bioavailability in Breast Milk” (Molecules, 2022).

The chains behind the UniProt entries cited, without tags or fusion partners. Residues count along the entry.
UniProt P02768, 25-609: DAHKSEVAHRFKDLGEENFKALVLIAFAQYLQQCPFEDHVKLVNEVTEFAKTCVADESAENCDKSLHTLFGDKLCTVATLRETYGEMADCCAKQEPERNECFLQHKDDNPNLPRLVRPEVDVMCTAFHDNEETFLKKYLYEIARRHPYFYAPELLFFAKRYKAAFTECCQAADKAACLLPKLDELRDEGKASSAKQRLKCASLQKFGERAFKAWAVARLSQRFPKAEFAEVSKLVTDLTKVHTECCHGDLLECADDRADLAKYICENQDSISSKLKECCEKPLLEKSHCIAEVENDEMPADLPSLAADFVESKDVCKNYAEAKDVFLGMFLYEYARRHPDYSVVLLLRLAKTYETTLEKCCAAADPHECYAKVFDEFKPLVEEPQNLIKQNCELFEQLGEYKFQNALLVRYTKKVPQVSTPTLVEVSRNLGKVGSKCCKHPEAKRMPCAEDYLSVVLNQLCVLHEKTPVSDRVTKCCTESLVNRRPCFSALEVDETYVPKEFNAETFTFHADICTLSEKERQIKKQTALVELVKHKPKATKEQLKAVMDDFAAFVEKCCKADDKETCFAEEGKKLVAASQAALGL

Biological target: human serum albumin (HSA) (Homo sapiens, UniProt P02768)
Conditions: pH 7.4

Clc1ccc2c(c1)CCc1cccnc1C2=C1CCNCC1 [desloratidine]
k HSA: 5.97 | log k HSA: 0.78
